According to the supplement of paper PMC10735217:
Counter-ions that a name gives are not always drawn. The list shows a part of the results. Single values are uncertain here, since repeats match poorly.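 The human kidney-derived cells carry a stably integrated construct of eight TEAD-binding elements driving luciferase, read by luminescence in a drug-repurposing library screen. A compound counts as a hit when its signal is more than five robust Z scores above the plate mean.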

System: HEK293A TEAD-LUC reporter
Experiment: TEAD-luciferase reporter activity (YAP activation), robust Z score vs plate; higher = stronger YAP/TEAD activation
Details: 24 h

Compound	TEAD-luciferase reporter activity (compound concentration: 200 nM)	TEAD-luciferase reporter activity (compound concentration: 2 uM)	TEAD-luciferase reporter activity (compound concentration: 10 uM)
O=C(NC(Cc1ccc(-c2nccs2)cc1)C(=O)O)C(CS)Cc1ccccc1 (configuration not stated)	inactive: -1.24	inactive: -1.88	inactive: 3.31
COCc1nnc(N2CC(Oc3ccc(F)cc3Cl)C2)n1-c1ccc(OC)nc1	active: 15.9	inactive: -0.483	inactive: -1.41
Cc1cc(OCCO)ccc1-c1cccc(COc2ccc(Cn3oc(=O)[nH]c3=O)cc2)c1	inactive: -1.1	inactive: -0.181	inactive: 0.256
CC(C)(C)OC(=O)N[C@@H](Cc1ccccc1)[C@@H](O)C[C@@H](Cc1ccc(OCCN2CCOCC2)cc1)C(=O)N[C@H]1c2ccccc2C[C@H]1O	inactive: 0.718	inactive: -0.919	inactive: -1.84
CNCC(O)c1ccc(OC(=O)C(C)(C)C)c(OC(=O)C(C)(C)C)c1 (configuration not stated) [dipivefrin]	inactive: 3.09	inactive: -1.57	inactive: 3.78
CNCC(O)c1ccc(OC(=O)C(C)(C)C)c(OC(=O)C(C)(C)C)c1 (configuration not stated) [Dipivefrin Hydrochloride]		inactive: -0.589	
O=C(Nc1c(Br)cc(Br)cc1CN[C@H]1CC[C@H](O)CC1)c1cccs1 [Neltenexine hydrochloride]	inactive: 0.517	inactive: -0.594	inactive: 0.602
CNCC(=O)N[C@@H](CCCNC(=N)N)C(=O)N[C@H](C(=O)N[C@@H](Cc1ccc(O)cc1)C(=O)N[C@H](C(=O)N[C@@H](Cc1c[nH]cn1)C(=O)N1CCC[C@H]1C(=O)N[C@@H](C)C(=O)O)C(C)C)C(C)C [saralasin, Bayer Schering]	inactive: -1.15		inactive: -0.708
CNCC(=O)N[C@@H](CCCNC(=N)N)C(=O)N[C@H](C(=O)N[C@@H](Cc1ccc(O)cc1)C(=O)N[C@H](C(=O)N[C@@H](Cc1c[nH]cn1)C(=O)N1CCC[C@H]1C(=O)N[C@@H](C)C(=O)O)C(C)C)C(C)C [saralasin]		inactive: -2.23	
CNc1cc2[nH]c(=O)n(-c3ccc(NC(=O)NS(=O)(=O)c4ccc(Cl)s4)cc3)c(=O)c2cc1F [Elinogrel potassium]	inactive: -1.58	inactive: -0.0598	inactive: -0.958
COc1nc(N)nc2c1ncn2[C@@H]1O[C@H](COP(=O)(N[C@@H](C)C(=O)OCC(C)(C)C)Oc2cccc3ccccc23)[C@@H](O)[C@@]1(C)O (some centres not stated)	inactive: -1.45	inactive: -1.48	inactive: 0.327
CCN1CC/C(=C\c2cc(C(C)(C)C)c(O)c(C(C)(C)C)c2)S1(=O)=O	inactive: -0.234	inactive: -0.0379	inactive: 0.918
Cc1nc2cccc(C(F)(F)F)c2c(=O)n1-c1ccc(OCCCN2CCCC2)cc1	inactive: -0.889	inactive: -0.237	inactive: -1.04
[N-]=[N+]=N[C@H]1C[C@H](n2ccc(=O)[nH]c2=O)O[C@@H]1CO [Navuridine]	inactive: 1.06	inactive: -0.918	inactive: -0.614
C#CCN(C)CCCOc1ccc(Cl)cc1Cl [Clorgiline (hydrochloride)]		inactive: -0.724	
C#CCN(C)CCCOc1ccc(Cl)cc1Cl	inactive: -1.01		inactive: 1.38
CN1CCC(C(=O)N2Cc3ccccc3CC3(CCCCN3CC3CCNCC3)C2)CC1 (configuration not stated)	inactive: 0.705		inactive: 1.74
CNC(=O)c1ccc(-c2cnc3ncc(Cc4ccc5ncccc5c4)n3n2)cc1F [capmatinib]	inactive: -1.97	inactive: -0.311	inactive: -0.121
O=C(O)C(Cl)(Cl)CCCCCCCCCCc1ccc(Cl)cc1	inactive: -2.04	inactive: -0.156	inactive: -0.996
Cn1c(=O)c2c(ncn2CCCN[C@H]2CO[C@H]3[C@@H]2OC[C@@H]3O[N+](=O)[O-])n(C)c1=O [teopranitol]	inactive: 3.45	inactive: -1	inactive: 1.23
Cc1nc2c([nH]1)c(=O)n(C)c(=O)n2CC1CC=CCC1 (configuration not stated)	inactive: -0.581	inactive: 0.316	inactive: -1.35
C[C@@H](C(O)(Cn1cncn1)c1ccc(F)cc1F)S(C)(=O)=O (some centres not stated) [genaconazole]	inactive: 1.78	inactive: -1	inactive: -1.06
CCOC(=O)c1cccc(N)c1 [Tricaine]	inactive: 1.65	inactive: -0.114	inactive: 0.205

Compound	TEAD-luciferase reporter activity (compound concentration: 200 nM)	TEAD-luciferase reporter activity (compound concentration: 2 uM)	TEAD-luciferase reporter activity (compound concentration: 10 uM)
Cc1ccc(Cc2c[nH]c(NCCSCc3ccc(CN(C)C)o3)nc2=O)cn1 [Lupitidine hydrochloride]	inactive: -2.72	inactive: 0.746	inactive: 0.651
CC[C@H](C)[C@H](NC(=O)[C@H](CO)NC(=O)[C@H](CC(N)=O)NC(=O)[C@H](CC(C)C)NC(=O)[C@H](Cc1ccc(O)cc1)NC(=O)[C@H](CCCCN)NC(=O)[C@H](CCCCN)NC(=O)[C@@H](NC(=O)[C@H](C)NC(=O)[C@H](CCSC)NC(=O)[C@H](CCC(N)=O)NC(=O)[C@H](CCCCN)NC(=O)[C@H](CCCNC(=N)N)NC(=O)[C@H](CC(C)C)NC(=O)[C@H](CCCNC(=N)N)NC(=O)[C@@H](NC(=O)[C@H](Cc1ccc(O)cc1)NC(=O)[C@H](CC(N)=O)NC(=O)[C@H](CC(=O)O)NC(=O)[C@@H](NC(=O)[C@H](Cc1ccccc1)NC(=O)[C@@H](NC(=O)[C@H](C)NC(=O)[C@H](CC(=O)O)NC(=O)[C@H](CO)NC(=O)[C@@H](N)Cc1cnc[nH]1)C(C)C)[C@@H](C)O)[C@@H](C)O)C(C)C)C(=O)N[C@@H](CC(C)C)C(=O)N[C@@H](CC(N)=O)C(=O)O [Aviptadil]		inactive: 0.308	inactive: -0.502
CCCCC/C=C/C/C=C/C/C=C/CCCCC(=O)O	inactive: 0.627	inactive: 0.741	inactive: -1.01
COc1ccc(-c2nnc(C)nc2-c2ccc(OC)cc2)cc1 [anitrazafen]	inactive: -0.243	inactive: -1.64	inactive: -0.387
CS(=O)(=O)Oc1ccc(OCCc2ccc(CC(SCCc3ccc(O)cc3)C(=O)O)cc2)cc1 (configuration not stated)	inactive: 3.99	inactive: -0.584	inactive: 0.198
CN[C@@H](C)C(=O)N[C@H](C(=O)N1CCC[C@H]1c1nc(C(=O)c2ccc(F)cc2)cs1)C1CCCCC1	inactive: 0.762	inactive: 0.689	inactive: 3.45
FC(F)OC(Cl)C(F)(F)F (configuration not stated) [isoflurane]	inactive: -1.39	inactive: -0.697	inactive: -0.61
C=C[C@H]1CNCC[C@H]1CCC(=O)c1ccnc2ccc(OC)cc12	inactive: -0.774	inactive: 0.245	inactive: 0.725
CC1=CC(=O)c2ccccc2C1=O	inactive: 0.126		inactive: 0.455
CC1=CC(=O)c2ccccc2C1=O [Menadione]		inactive: -2.43	
CCCCOc1nc(N)c2[nH]c(=O)n(CCCN(CCCN3CCOCC3)Cc3cccc(CC(=O)OC)c3)c2n1	inactive: -0.22	inactive: -0.816	inactive: 1.41
Cc1oc(-c2cccs2)nc1CCOc1ccc(CC(C)(Oc2ccccc2)C(=O)O)cc1 (configuration not stated)	inactive: -0.605	inactive: -0.244	inactive: -0.0292
CC1(C)Oc2ccc(C#N)cc2[C@@H](N(Cc2ncc[nH]2)c2ccc(Cl)cc2)[C@@H]1O	inactive: 0.569	inactive: -0.824	inactive: -0.139
COc1c(C)c2c(c(O)c1CC=C(C)CCC(=O)OCCN1CCOCC1)C(=O)OC2 [mycophenolate mofetil]	inactive: -0.333	inactive: 2.22	inactive: 1.1
Cc1cnc(NCC(F)(F)c2ccccc2)c(=O)n1CC(=O)NCCONC(=N)N	inactive: -0.444	inactive: -0.492	inactive: -1.43
Cc1c(C)c2c(c(C)c1O)CCC(C)(CN1CCN(c3cc(N4CCCC4)nc(N4CCCC4)n3)CC1)O2 (configuration not stated)	inactive: -0.472	inactive: 1.11	inactive: -1.94
CC(C)(C)c1cc(CN2CCN(CC(O)c3ccc(Cl)cc3)CC2)cc(C(C)(C)C)c1O (configuration not stated)	inactive: -2.6	inactive: -1.64	inactive: 1.91
CCOC(=O)c1c(C)nc(C)c(C(=O)OC)c1-c1cccc(Cl)c1Cl	inactive: 0.29	inactive: -3.22	inactive: -1.63
CO[C@H]1C[C@H](O[C@H]2[C@H](C)[C@@H](O[C@@H]3O[C@H](C)C[C@H](N(C)C)[C@H]3OC(C)=O)[C@@H](C)C[C@@]3(CO3)C(=O)[C@H](C)[C@@H](OC(C)=O)[C@@H](C)[C@@H](C)OC(=O)[C@@H]2C)O[C@@H](C)[C@@H]1OC(C)=O [troleandomycin]		inactive: -1.05	
CO[C@H]1C[C@H](O[C@H]2[C@H](C)[C@@H](O[C@@H]3O[C@H](C)C[C@H](N(C)C)[C@H]3OC(C)=O)[C@@H](C)C[C@@]3(CO3)C(=O)[C@H](C)[C@@H](OC(C)=O)[C@@H](C)[C@@H](C)OC(=O)[C@@H]2C)O[C@@H](C)[C@@H]1OC(C)=O [troleandomycin, Elan]	inactive: -1.44		inactive: -1.14
CC(C)(C)N/C(=N\C#N)Nc1cccc(/C(=C\CCCC(=O)O)c2cccnc2)c1	inactive: 0.304	inactive: -0.554	inactive: -0.201
COc1ccc2nc(=O)[nH]c(C)c2c1OC	inactive: -0.473	inactive: -0.132	inactive: -0.0698
CC/C(=C\C(=N/O)C(N)=O)C(C)[N+](=O)[O-] (configuration not stated)	inactive: 3.37	inactive: -0.85	inactive: 1.94

Complete entries as entered above.
Cc1c(C)c2c(c(C)c1O)CCC(C)(CN1CCN(c3cc(N4CCCC4)nc(N4CCCC4)n3)CC1)O2 (configuration not stated) is entered as TEAD-luciferase reporter activity (compound concentration: 200 nM): inactive: -0.472; TEAD-luciferase reporter activity (compound concentration: 2 uM): inactive: 1.11; TEAD-luciferase reporter activity (compound concentration: 10 uM): inactive: -1.94
CO[C@H]1C[C@H](O[C@H]2[C@H](C)[C@@H](O[C@@H]3O[C@H](C)C[C@H](N(C)C)[C@H]3OC(C)=O)[C@@H](C)C[C@@]3(CO3)C(=O)[C@H](C)[C@@H](OC(C)=O)[C@@H](C)[C@@H](C)OC(=O)[C@@H]2C)O[C@@H](C)[C@@H]1OC(C)=O [troleandomycin, Elan] is entered as TEAD-luciferase reporter activity (compound concentration: 200 nM): inactive: -1.44; TEAD-luciferase reporter activity (compound concentration: 10 uM): inactive: -1.14
C=C[C@H]1CNCC[C@H]1CCC(=O)c1ccnc2ccc(OC)cc12 is entered as TEAD-luciferase reporter activity (compound concentration: 200 nM): inactive: -0.774; TEAD-luciferase reporter activity (compound concentration: 2 uM): inactive: 0.245; TEAD-luciferase reporter activity (compound concentration: 10 uM): inactive: 0.725
